Experimental data: PubChem BioAssay AID1259308 (NCATS, 2017)
Assay: 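Knock-downs that increase output of a recombinant reporter protein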 (primary screen). Cell system: human HEK293 embryonic kidney cells stably expressing firefly luciferase (HEK-CMV-Luc2-Hygro). Knock-down reagent: single siRNA against human genes, 0.8 pmol siRNA per well. Time to read-out: 72 h. Measurement: 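Luciferase light (ONE-Glo) measured on one replicate plate set and viability (CellTiter-Glo) on the other, scaled to a negative control siRNA, with robust z-scores and luciferase per cell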. Reading the numbers: total luciferase, z-score and total luciferase, % of control: higher = more reporter protein produced; luciferase per cell, z-score: higher = more reporter output per viable cell; viable cells, % of control: higher = more viable cells. Rule for the call: 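Active when the median/MAD z-score for overall luciferase is greater than 3; a gene was taken forward for validation with new siRNAs if at least two of its three siRNAs passed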. Calls: active = raised luciferase; inactive = no rise.
The deposit covers about 59,000 reagents; below is a part drawn at random. About 1,510 of all reagents (2.6%) count as active. 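Calls use total luciferase alone and ignore viability, so some active siRNAs may act by altering cell number.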 Reagents against one gene are numbered here.

gene | reagent no. | total luciferase, z-score | total luciferase, % of control | luciferase per cell, z-score | viable cells, % of control | activity call
FADD | 1 | 0.77 | 97.2 | 0.68 | 90.8 | inactive
FADD | 2 | 1.99 | 121 | 1.65 | 87.9 | inactive
FADD | 3 | 0.249 | 86.8 | -0.829 | 121 | inactive
EGLN2 | 1 | 1.05 | 103 | 0.786 | 93.4 | inactive
EGLN2 | 2 | -0.772 | 66.5 | -0.421 | 83.1 | inactive
EGLN2 | 3 | 1.72 | 116 | 0.922 | 102 | inactive
IGSF21 | 1 | -0.0552 | 80.8 | -0.599 | 106 | inactive
IGSF21 | 2 | -0.183 | 78.2 | 0.0135 | 87.1 | inactive
IGSF21 | 3 | 0.602 | 93.9 | 0.515 | 91.6 | inactive
ZNF593 | 1 | -0.652 | 68.9 | -0.0311 | 77.6 | inactive
ZNF593 | 2 | 0.137 | 84.6 | 0.0964 | 92.2 | inactive
ZNF593 | 3 | 0.013 | 82.1 | -0.313 | 99.7 | inactive
KHK | 1 | 2.74 | 136 | 3.06 | 68 | inactive
KHK | 2 | -1.14 | 59.2 | -1.49 | 97.8 | inactive
KHK | 3 | -1.49 | 52.3 | -1.32 | 82.7 | inactive
ABHD12 | 1 | -0.415 | 73.6 | -0.992 | 107 | inactive
ABHD12 | 2 | 1.09 | 104 | 1.35 | 81.2 | inactive
ABHD12 | 3 | -1.26 | 56.8 | 0.147 | 61 | inactive
DNM2 | 1 | 0.151 | 84.9 | -0.296 | 103 | inactive
DNM2 | 2 | -1.87 | 44.6 | -0.969 | 64.3 | inactive
DNM2 | 3 | 0.218 | 86.2 | 0.206 | 91.3 | inactive
TOMM7 | 1 | -2.46 | 33 | -2.26 | 66.9 | inactive
TOMM7 | 2 | -1.18 | 58.4 | -0.872 | 82.2 | inactive
TOMM7 | 3 | 0.944 | 101 | 0.304 | 104 | inactive
TUBB7P | 1 | 0.144 | 84.8 | 0.467 | 83.7 | inactive
TUBB7P | 2 | -0.00988 | 81.7 | 0.207 | 86.5 | inactive
TUBB7P | 3 | -0.646 | 69 | -0.773 | 94.6 | inactive
ZGRF1 | 1 | -0.426 | 73.4 | -1.06 | 108 | inactive
ZGRF1 | 2 | -0.406 | 73.8 | -0.543 | 95.2 | inactive
ZGRF1 | 3 | -3.28 | 16.6 | -3.72 | 49.5 | inactive
ZGRF1 | 4 | 0.417 | 90.2 | -0.153 | 105 | inactive
ZGRF1 | 5 | -0.104 | 79.8 | -0.53 | 103 | inactive
ZGRF1 | 6 | -1.32 | 55.7 | -1.4 | 90 | inactive
PRLR | 1 | -0.671 | 68.5 | -0.898 | 97 | inactive
PRLR | 2 | -0.177 | 78.4 | -0.29 | 94.5 | inactive
PRLR | 3 | -1.34 | 55.2 | -1.71 | 96.9 | inactive
OR2F2 | 1 | 0.197 | 85.8 | -0.707 | 115 | inactive
OR2F2 | 2 | 0.821 | 98.2 | 0.481 | 96.7 | inactive
OR2F2 | 3 | -0.0585 | 80.7 | 0.0803 | 88.3 | inactive
EFTUD2 | 1 | 0.337 | 88.6 | 0.996 | 76.2 | inactive
EFTUD2 | 2 | 0.905 | 99.9 | 0.906 | 87.9 | inactive
EFTUD2 | 3 | -1.79 | 46.3 | -1.08 | 68.7 | inactive
MIPEPP3 | 1 | 1.75 | 117 | 0.407 | 117 | inactive
MIPEPP3 | 2 | 0.878 | 99.3 | 1.11 | 82.8 | inactive
MIPEPP3 | 3 | 0.0747 | 83.4 | -0.395 | 103 | inactive
H4C6 | 1 | -1.91 | 43.8 | -1.47 | 72.1 | inactive
H4C6 | 2 | 0.859 | 99 | 0.267 | 103 | inactive
H4C6 | 3 | 2.37 | 129 | 1.23 | 104 | inactive
SWI5 | 1 | 0.529 | 92.4 | -0.475 | 117 | inactive
SWI5 | 2 | 0.811 | 98 | 1.27 | 78.5 | inactive
SWI5 | 3 | 0.101 | 83.9 | 0.344 | 85.6 | inactive
FHIT | 1 | -0.0981 | 79.9 | -0.105 | 91.8 | inactive
FHIT | 2 | 0.264 | 87.1 | 0.221 | 91.8 | inactive
FHIT | 3 | 0.208 | 86 | -0.0799 | 98.2 | inactive
CIMAP1C | 1 | -0.383 | 74.3 | -0.135 | 86 | inactive
CIMAP1C | 2 | 0.782 | 97.4 | 1.25 | 78.4 | inactive
CIMAP1C | 3 | -2.26 | 36.9 | -2.67 | 83.3 | inactive
OR5T3 | 1 | -1.61 | 49.8 | -0.875 | 70.1 | inactive
OR5T3 | 2 | -0.703 | 67.9 | -0.913 | 96.5 | inactive
OR5T3 | 3 | 0.565 | 93.1 | 0.00846 | 104 | inactive
DEFB1 | 1 | -1.45 | 53 | 0.265 | 55.3 | inactive
DEFB1 | 2 | 0.705 | 95.9 | 0.498 | 94 | inactive
DEFB1 | 3 | -0.0787 | 80.3 | 0.0732 | 88 | inactive
APOOL | 1 | 0.975 | 101 | 1.14 | 83.8 | inactive
APOOL | 2 | -0.177 | 78.4 | -0.468 | 99.1 | inactive
APOOL | 3 | -0.662 | 68.7 | -0.418 | 85.7 | inactive
NFKB2 | 1 | 1.71 | 116 | 3.86 | 46.9 | inactive
NFKB2 | 2 | 0.345 | 88.7 | 1.59 | 65.3 | inactive
NFKB2 | 3 | -2.02 | 41.8 | -0.646 | 55.3 | inactive
RIOK1 | 1 | 0.312 | 88.1 | -0.194 | 104 | inactive
RIOK1 | 2 | 0.0397 | 82.7 | 0.251 | 86.5 | inactive
RIOK1 | 3 | -0.149 | 78.9 | -0.592 | 103 | inactive
MRGBP | 1 | 1.34 | 108 | 0.945 | 94.5 | inactive
MRGBP | 2 | 0.57 | 93.2 | 0.283 | 96.7 | inactive
MRGBP | 3 | 1.41 | 110 | 1.17 | 90.1 | inactive

In a second layout: 11 of the entries above
| gene | reagent no. | total luciferase, z-score | total luciferase, % of control | luciferase per cell, z-score | viable cells, % of control | activity call |
| --- | --- | --- | --- | --- | --- | --- |
| TUBB7P | 3 | -0.646 | 69 | -0.773 | 94.6 | inactive |
| ZGRF1 | 1 | -0.426 | 73.4 | -1.06 | 108 | inactive |
| ZGRF1 | 2 | -0.406 | 73.8 | -0.543 | 95.2 | inactive |
| ZGRF1 | 3 | -3.28 | 16.6 | -3.72 | 49.5 | inactive |
| ZGRF1 | 4 | 0.417 | 90.2 | -0.153 | 105 | inactive |
| ZGRF1 | 5 | -0.104 | 79.8 | -0.53 | 103 | inactive |
| ZGRF1 | 6 | -1.32 | 55.7 | -1.4 | 90 | inactive |
| PRLR | 1 | -0.671 | 68.5 | -0.898 | 97 | inactive |
| PRLR | 2 | -0.177 | 78.4 | -0.29 | 94.5 | inactive |
| PRLR | 3 | -1.34 | 55.2 | -1.71 | 96.9 | inactive |
| OR2F2 | 1 | 0.197 | 85.8 | -0.707 | 115 | inactive |
